Reference: the supplement of paper PMC8728848
The list shows a part of the results.

Tests used:
Assay in all cases: glycan array binding signal (z-score within array); higher = stronger binding
Conditions in all cases: glycan notation: IUPAC condensed, linker removed
Gal(b1-2)Gal = target: Gal(b1-2)Gal
Summary of the method: (§1)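 Glycan array data came from 3228 arrays in the Consortium for Functional Glycomics database, and only arrays with an available protein sequence were kept. Glycan names were put into IUPAC-condensed notation, and columns mapping to the same glycan were averaged. The binding signal is a within-array Z-score, averaged across arrays of one protein sequence run at different concentrations or buffers and across linkers. A negative Z-score can be read as non-binding.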

Gal(b1-3)Gal = target: Gal(b1-3)Gal
Summary of the method: as §1

Gal(b1-3)Gal(b1-4)GlcNAc = target: Gal(b1-3)Gal(b1-4)GlcNAc
Summary of the method: as §1

Gal(b1-3)GalNAc = target: Gal(b1-3)GalNAc
Summary of the method: as §1

[1] = target: Gal(b1-3)GalNAc(a1-3)[Fuc(a1-2)]Gal(b1-4)Glc
Summary of the method: as §1

[2] = target: Gal(b1-3)GalNAc(a1-3)[Fuc(a1-2)]Gal(b1-4)GlcNAc
Summary of the method: as §1

Gal(b1-3)GalNAc(b1-3)Gal = target: Gal(b1-3)GalNAc(b1-3)Gal
Summary of the method: as §1

[3] = target: Gal(b1-3)GalNAc(b1-3)Gal(a1-4)Gal(b1-4)Glc
Summary of the method: as §1

[4] = target: Gal(b1-3)GalNAc(b1-4)Gal(b1-4)Glc
Summary of the method: as §1

[5] = target: Gal(b1-3)GalNAc(b1-4)[Neu5Ac(a2-3)]Gal(b1-4)Glc
Summary of the method: as §1

Gal(b1-3)GlcNAc = target: Gal(b1-3)GlcNAc
Summary of the method: as §1

[6] = target: Gal(b1-3)GlcNAc(a1-3)Gal(b1-4)GlcNAc
Summary of the method: as §1

[7] = target: Gal(b1-3)GlcNAc(a1-6)Gal(b1-4)GlcNAc
Summary of the method: as §1

Gal(b1-3)GlcNAc(b1-2)Man = target: Gal(b1-3)GlcNAc(b1-2)Man
Summary of the method: as §1

[8] = target: Gal(b1-3)GlcNAc(b1-2)Man(a1-3)[Gal(b1-3)GlcNAc(b1-2)Man(a1-6)]Man(b1-4)GlcNAc(b1-4)GlcNAc
Summary of the method: as §1

[9] = target: Gal(b1-3)GlcNAc(b1-2)Man(a1-3)[Gal(b1-3)GlcNAc(b1-2)Man(a1-6)]Man(b1-4)GlcNAc(b1-4)[Fuc(a1-6)]GlcNAc
Summary of the method: as §1

[10] = target: Gal(b1-3)GlcNAc(b1-2)Man(a1-3)[GlcNAc(b1-4)][Gal(b1-3)GlcNAc(b1-2)Man(a1-6)]Man(b1-4)GlcNAc(b1-4)GlcNAc
Summary of the method: as §1

[11] = target: Gal(b1-3)GlcNAc(b1-2)[Gal(b1-3)GlcNAc(b1-6)]Man(a1-6)[Gal(b1-3)GlcNAc(b1-2)Man(a1-3)]Man(b1-4)GlcNAc(b1-4)GlcNAc
Summary of the method: as §1

[12] = target: Gal(b1-3)GlcNAc(b1-3)Gal(b1-3)GlcNAc
Summary of the method: as §1

[13] = target: Gal(b1-3)GlcNAc(b1-3)Gal(b1-4)Glc
Summary of the method: as §1

[14] = target: Gal(b1-3)GlcNAc(b1-3)Gal(b1-4)GlcNAc
Summary of the method: as §1

[15] = target: Gal(b1-3)GlcNAc(b1-3)Gal(b1-4)GlcNAc(b1-2)Man(a1-3)[Gal(b1-3)GlcNAc(b1-3)Gal(b1-4)GlcNAc(b1-2)Man(a1-6)]Man(b1-4)GlcNAc(b1-4)GlcNAc
Summary of the method: as §1

[16] = target: Gal(b1-3)GlcNAc(b1-3)Gal(b1-4)GlcNAc(b1-2)[Gal(b1-3)GlcNAc(b1-3)Gal(b1-4)GlcNAc(b1-6)]Man(a1-6)[Gal(b1-3)GlcNAc(b1-3)Gal(b1-4)GlcNAc(b1-2)Man(a1-3)]Man(b1-4)GlcNAc(b1-4)[Fuc(a1-6)]GlcNAc
Summary of the method: as §1

[17] = target: Gal(b1-3)GlcNAc(b1-3)Gal(b1-4)GlcNAc(b1-3)Gal(b1-4)GlcNAc(b1-2)[Gal(b1-3)GlcNAc(b1-3)Gal(b1-4)GlcNAc(b1-3)Gal(b1-4)GlcNAc(b1-6)]Man(a1-6)[Gal(b1-3)GlcNAc(b1-3)Gal(b1-4)GlcNAc(b1-3)Gal(b1-4)GlcNAc(b1-2)Man(a1-3)]Man(b1-4)GlcNAc(b1-4)[Fuc(a1-6)]GlcNAc
Summary of the method: as §1

[18] = target: Gal(b1-3)GlcNAc(b1-3)Gal(b1-4)GlcNAc(b1-6)[Gal(b1-3)GlcNAc(b1-3)]Gal(b1-4)Glc
Summary of the method: as §1

[19] = target: Gal(b1-3)GlcNAc(b1-3)Gal(b1-4)[Fuc(a1-3)]GlcNAc
Summary of the method: as §1

[20] = target: Gal(b1-3)GlcNAc(b1-3)Gal(b1-4)[Fuc(a1-3)]GlcNAc(b1-6)[Gal(b1-3)GlcNAc(b1-3)]Gal(b1-4)Glc
Summary of the method: as §1

[21] = target: Gal(b1-3)GlcNAc(b1-3)GalNAc
Summary of the method: as §1

[22] = target: Gal(b1-3)GlcNAc(b1-6)Gal(b1-4)GlcNAc
Summary of the method: as §1

[23] = target: Gal(b1-3)GlcNAc(b1-6)GalNAc
Summary of the method: as §1

[24] = target: Gal(b1-3)GlcNAc(b1-6)[Gal(b1-3)]GalNAc
Summary of the method: as §1

Gal(b1-3)GlcNAc6S = target: Gal(b1-3)GlcNAc6S
Summary of the method: as §1

[25] = target: Gal(b1-3)[Fuc(a1-4)]GlcNAc
Summary of the method: as §1

[26] = target: Gal(b1-3)[Fuc(a1-4)]GlcNAc(b1-2)Man
Summary of the method: as §1

[27] = target: Gal(b1-3)[Fuc(a1-4)]GlcNAc(b1-2)Man(a1-3)[Gal(b1-3)[Fuc(a1-4)]GlcNAc(b1-2)Man(a1-6)]Man(b1-4)GlcNAc(b1-4)[Fuc(a1-6)]GlcNAc
Summary of the method: as §1

[28] = target: Gal(b1-3)[Fuc(a1-4)]GlcNAc(b1-3)Gal(b1-3)[Fuc(a1-4)]GlcNAc
Summary of the method: as §1

[29] = target: Gal(b1-3)[Fuc(a1-4)]GlcNAc(b1-3)Gal(b1-4)[Fuc(a1-3)]GlcNAc
Summary of the method: as §1

B1: Wzz (Escherichia coli) (protein)
chain: MRTWKFPSVRVMMRVENNNVSGQNHDPEQIDLIDLLVQLWRGKMTIIISVIVAIVLAIGYLAVAKEKWTSTAIITQPDVGQIAGYNNAMNVIYGQAAPKVSDLQETLIGRFSSAFSALAETLDNQEEPEKLTIEPSVKNQQLPLTVSYVGQTAEGAQMKLAQYIQQVDDKVNQELEKDLKDNIALGRKNLQDSLRTQEVVAQEQKDLRIRQIQEALQYANQAQVTKPQIQQTGEDITQDTLFLLGSEALESMIKHEATRPLVFSSNYYQTRQNLLDIDNLDVDKLDIHAYLYVMKPTLPIRRDSPKKAITLILAVLLGGMVGAGIVLGRNALRNYNAK
glycan array binding signal (z-score) (Gal(b1-2)Gal): -0.473 | glycan array binding signal (z-score) (Gal(b1-3)Gal): -0.428 | glycan array binding signal (z-score) (Gal(b1-3)Gal(b1-4)GlcNAc): 0.033 | glycan array binding signal (z-score) (Gal(b1-3)GalNAc): 0.081 | glycan array binding signal (z-score) [1]: 0.127 | glycan array binding signal (z-score) [2]: -0.295 | glycan array binding signal (z-score) (Gal(b1-3)GalNAc(b1-3)Gal): -0.357 | glycan array binding signal (z-score) [3]: 0.019 | glycan array binding signal (z-score) [4]: 0.343 | glycan array binding signal (z-score) [5]: -0.404 | glycan array binding signal (z-score) (Gal(b1-3)GlcNAc): -0.435 | glycan array binding signal (z-score) [6]: -0.135 | glycan array binding signal (z-score) [7]: -0.474 | glycan array binding signal (z-score) (Gal(b1-3)GlcNAc(b1-2)Man): 0.87 | glycan array binding signal (z-score) [8]: 1.41 | glycan array binding signal (z-score) [9]: -0.275 | glycan array binding signal (z-score) [10]: -0.31 | glycan array binding signal (z-score) [11]: 0.086 | glycan array binding signal (z-score) [12]: 0.434 | glycan array binding signal (z-score) [13]: -0.951 | glycan array binding signal (z-score) [14]: -0.99 | glycan array binding signal (z-score) [15]: -1.01 | glycan array binding signal (z-score) [16]: 1.03 | glycan array binding signal (z-score) [17]: 0.297 | glycan array binding signal (z-score) [18]: -0.495 | glycan array binding signal (z-score) [19]: -0.217 | glycan array binding signal (z-score) [20]: -0.082 | glycan array binding signal (z-score) [21]: 0.376 | glycan array binding signal (z-score) [22]: -0.626 | glycan array binding signal (z-score) [23]: 0.399 | glycan array binding signal (z-score) [24]: 0.334 | glycan array binding signal (z-score) (Gal(b1-3)GlcNAc6S): 0.376 | glycan array binding signal (z-score) [25]: -0.53 | glycan array binding signal (z-score) [26]: 2.68 | glycan array binding signal (z-score) [27]: 1.53 | glycan array binding signal (z-score) [28]: -1.68 | glycan array binding signal (z-score) [29]: -0.584
